Reference: PubChem BioAssay AID493014 (National Center for Advancing Translational Sciences (NCATS), 2011)
This is one part of the list. The main result of the screen is listed elsewhere. These columns were measured beside it and carry no call. Most of these compounds were active or inconclusive in the main read-out, so they are no random draw. The note in brackets gives the kind of curve behind each potency; many fits are weak.

Experiment: qHTS Assay to Find Inhibitors of Chronic Active B-Cell Receptor Signaling
Conditions: ABC-DLBCL IkBa-CBG/CBR reporter, luminescence ratio (green luciferase fused to IkBa over red control in TMD8 lymphoma cells), 4 h
Summary of the method: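 TMD8 ABC-DLBCL cells carrying doxycycline-inducible green luciferase fused to IkappaBalpha plus unfused red luciferase were exposed to compounds (up to 46 uM) for 4 hrs at 37C. Activity came from the overlap-corrected green/red luminescence ratio.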

[1] = measured here: CBR red luminescence, cell number
[2] = measured here: IkBa-CBG green luminescence

COc1ccc(CNC(=O)NC2CCCCC2)cc1
AC50 [1]: 35.5 µM [rising, single point]

Cc1ccc(C(=O)NC(=S)/C=C2\N(C)c3ccccc3C2(C)C)cc1
AC50 [1]: 29.1 µM [rising, single point]

CCN(CC)CCN(CC(=O)N(C1CCCCC1)C1CCCCC1)C(=O)c1ccco1
AC50 [1]: 2.51 µM [falling, full curve, poor fit]

Fc1nc(F)c(F)c(NCCCNc2c(F)c(F)nc(F)c2F)c1F
AC50 [1]: 20 µM [falling, single point] | AC50 [2]: 15.8 µM [rising, partial curve, poor fit]

COc1ccc(OC)c2[nH]c(=O)c(CCNC(=O)C3CCCCC3)cc12
AC50 [1]: 7.08 µM [rising, full curve]

CC12CCC(C(=O)NCCN3CCCCC3)(CC1=O)C2(C)C (centres undefined)
AC50 [1]: 3.55 µM [falling, partial curve, poor fit]

O=C(NC1=C(NC2CCS(=O)(=O)C2)C(=O)c2ccccc2C1=O)c1ccccc1 (centres undefined)
AC50 [1]: 14.1 µM [falling, single point]

Cc1cc(NC(=O)CN2CCc3ccccc3C2)nc2c1c(=O)oc1ccccc12
AC50 [1]: 35.5 µM [falling, single point]

Cc1nc2ccc(C(=O)c3ccccc3)cc2[nH]1
AC50 [1]: 32.6 µM [falling, single point]

CCCn1c(SCC(=O)Nc2cc(S(=O)(=O)N3CCCCC3)ccc2C)n[nH]c1=O
AC50 [1]: 36.6 µM [falling, partial curve, poor fit]

O=C(N/C(=C/c1ccccc1Cl)C(=O)N1CCOCC1)c1ccccc1
AC50 [1]: 2.06 µM [rising, partial curve, poor fit]

CC(C)COc1cccc(C(=O)Nc2ccc(S(=O)(=O)N3CCOCC3)cc2)c1
AC50 [1]: 18.4 µM [falling, single point]

O=[N+]([O-])c1cc(/C=N/O)ccc1Oc1ccccc1Cl
AC50 [1]: 35.5 µM [falling, single point]

O=C(NC(=S)Nc1ccc(NC(=O)c2cccs2)cc1)c1cc2ccccc2o1
AC50 [1]: 0.58 µM [rising, partial curve, poor fit]

COc1cc2ccccc2cc1C(=O)N/N=C/c1ccc2c(c1)OCO2
AC50 [1]: 35.5 µM [falling, single point] | AC50 [2]: 8.91 µM [falling, partial curve, poor fit]

COc1cccc(OC)c1C(=O)Nc1sc2c(c1C(N)=O)CCN(Cc1ccccc1)C2
AC50 [1]: 3.98 µM [rising, single point]

CC(=O)N1CCN(C(=O)c2ccc(Oc3ccccc3)cc2)CC1
AC50 [1]: 1.58 µM [falling, partial curve, poor fit]

COc1ccc(C(=O)Nc2nncs2)cc1S(=O)(=O)N1CC(c2ccccc2)CC1=O (centres undefined)
AC50 [1]: 15.8 µM [falling, single point] | AC50 [2]: 10 µM [rising, partial curve, poor fit]

Cc1cc(C(=O)CSc2nc3ccccc3o2)c(C)n1C1CC1
AC50 [1]: 0.291 µM [rising, full curve, poor fit]

CC(=O)CC(=O)Nc1ccc(Nc2ccccc2)cc1
AC50 [1]: 29.1 µM [falling, single point]

Cc1ccc(CNC(=O)Cc2ccc(-n3c(=O)[nH]c4ccsc4c3=O)cc2)cc1
AC50 [1]: 16.4 µM [rising, partial curve] | AC50 [2]: 13 µM [falling, partial curve]

CCN(CC(=O)Nc1ccc(NC(C)=O)cc1)C(=O)C1(c2ccccc2)CC1
AC50 [1]: 6.51 µM [falling, single point]

CN(C)c1ccc(Nc2ncnc3ccc(Br)cc23)cc1
AC50 [1]: 39.8 µM [falling, partial curve, poor fit]

Cc1cc(C(=O)O)ccc1NCc1ccncc1
AC50 [1]: 1.12 µM [rising, full curve, poor fit]

Cc1ccc2nc(Nc3ccc(C)c(C)c3)c3nncn3c2c1
AC50 [1]: 0.447 µM [rising, full curve, poor fit]

COc1cccc(C(=O)NNC(=O)c2ccccc2Br)c1
AC50 [1]: 10 µM [falling, partial curve]

COc1ccc(N2CCN(S(=O)(=O)c3ccc(F)c(C(=O)Nc4ccccc4Cl)c3)CC2)cc1
AC50 [1]: 5.62 µM [rising, single point]

COc1ccc(OC)c(NC(=O)c2oc(=O)c3ccccc3c2-c2ccccc2)c1
AC50 [1]: 1.41 µM [rising, partial curve, poor fit]

CC1CC(C)CN(C(=O)COC(=O)CCC(=O)c2cccs2)C1 (centres undefined)
AC50 [1]: 11.6 µM [rising, partial curve]

c1cc(-c2noc(CCC3CCCC3)n2)ccn1
AC50 [1]: 16.4 µM [rising, partial curve, poor fit]

CCc1ccc(NC(=O)C2CCN(S(=O)(=O)c3ccc4c(c3)NC(=O)CO4)CC2)cc1
AC50 [1]: 5.62 µM [rising, single point] | AC50 [2]: 5.62 µM [falling, single point]

CC(/C=N/NC(=O)c1cc(-c2ccc(Cl)cc2)nc2ccccc12)=C\c1ccco1
AC50 [1]: 8.2 µM [rising, partial curve] | AC50 [2]: 5.8 µM [falling, partial curve]

Cc1cc(NC(=O)c2ccccc2O)nc(C)n1
AC50 [1]: 15.8 µM [falling, single point]

COC(=O)[C@H](Cc1ccc(O)cc1)NC(=O)Cn1cnc(C(=O)Nc2ccc(C)c(C)c2)n1
AC50 [1]: 0.0082 µM [falling, full curve, poor fit]

O=C(N(c1ccccc1)c1ccccc1)N(c1ccccc1)c1ccccc1
AC50 [1]: 35.5 µM [falling, single point]

CCCOc1ccc(C(=O)NNC(=S)NC(=O)c2cc(-c3ccc(Cl)cc3)nc3ccccc23)cc1
AC50 [1]: 2.24 µM [rising, full curve, poor fit]

O=C(N/N=C/c1cn(-c2ccccc2)nc1-c1cc2ccccc2o1)c1cccnc1
AC50 [1]: 6.51 µM [rising, single point]

COc1cccc(NC(=O)c2ccc3c(c2)OCO3)c1
AC50 [1]: 8.91 µM [falling, partial curve, poor fit]
